# Experimental data reported in the supplement of paper PMC8728848.
# The list shows a part of the results.
# B1: FimA (Actinomyces oris) (protein)
# chain: MHHHHHHSSGVDLGTENLYFQSNAETPNYGNIKTDATGSLVIHKHLTGGGKDIGTPTGTAQNADDKGPAVEGVVFTAYPITDINLKDPAGWDTISNLSRTGVPDSACANPAAPTLGAHQFGTPKVSPATTKEGLATITEMPVQAYLVCETTTPGDIVQKAKPFVVTIPHPNTAAGADGQWIYDVNVYPKNEAIDVDKTIQAQKLNGYGVGSLIKFPVESTAPTLDAKSFYKYFQLKDTLDERLSEVTATDVSLEGTPLQPTDYKVETKQQTVTVTFTAEGLKKIKAAPGKKVSAVFQGKVTKAGNGAITNRAQVISDTLYAEQPPTPETPPTDPENPPTSDEVISRWGDLSIKKVDTHQQGQTKAGLQGAQFQLYKAKNAYANTCSNEKEGAPIAINGQTTLTTDAQGAIDIKGLFISDSIDGADRDNQVNAMERCYVLVETKAPAGYVLPAGNGAATPVKVKAGEETTDNVTVENTKQSVPGLPLTG
# Tests used:
# Test in all cases: glycan array binding signal (z-score within array); higher = stronger binding
# Conditions in all cases: glycan notation: IUPAC condensed, linker removed
# [1] = target: GlcNAc(b1-2)[GlcNAc(b1-4)]Man(a1-3)[GlcNAc(b1-4)][GlcNAc(b1-2)[GlcNAc(b1-6)]Man(a1-6)]Man(b1-4)GlcNAc(b1-4)GlcNAc
# Method in brief: (§1)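 The binding signal is a Z-score computed within each array. Data were drawn from 3228 arrays in the Consortium for Functional Glycomics database, restricted to those with a known protein sequence. Scores were averaged over arrays of the same protein sequence at different concentrations or buffers, and over linkers, and negative values can be taken as non-binding.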
# [2] = target: GlcNAc(b1-2)[GlcNAc(b1-4)]Man(a1-3)[GlcNAc(b1-4)][GlcNAc(b1-2)[GlcNAc(b1-6)]Man(a1-6)]Man(b1-4)GlcNAc(b1-4)[Fuc(a1-6)]GlcNAc
# Method in brief: as §1
# [3] = target: GlcNAc(b1-2)[GlcNAc(b1-6)]Man(a1-6)[GlcNAc(b1-2)Man(a1-3)]Man(b1-4)GlcNAc(b1-4)GlcNAc
# Method in brief: as §1
# [4] = target: GlcNAc(b1-2)[GlcNAc(b1-6)]Man(a1-6)[GlcNAc(b1-2)Man(a1-3)]Man(b1-4)GlcNAc(b1-4)[Fuc(a1-6)]GlcNAc
# Method in brief: as §1
# [5] = target: GlcNAc(b1-2)[GlcNAc(b1-6)]Man(a1-6)[GlcNAc(b1-4)][GlcNAc(b1-2)Man(a1-3)]Man(b1-4)GlcNAc(b1-4)GlcNAc
# Method in brief: as §1
# GlcNAc(b1-3)Fuc = target: GlcNAc(b1-3)Fuc
# Method in brief: as §1
# GlcNAc(b1-3)Gal = target: GlcNAc(b1-3)Gal
# Method in brief: as §1
# [6] = target: GlcNAc(b1-3)Gal(b1-3)GalNAc
# Method in brief: as §1
# GlcNAc(b1-3)Gal(b1-4)Glc = target: GlcNAc(b1-3)Gal(b1-4)Glc
# Method in brief: as §1
# [7] = target: GlcNAc(b1-3)Gal(b1-4)GlcNAc
# Method in brief: as §1
# [8] = target: GlcNAc(b1-3)Gal(b1-4)GlcNAc(b1-2)Man(a1-3)[GlcNAc(b1-3)Gal(b1-4)GlcNAc(b1-2)Man(a1-6)]Man(b1-4)GlcNAc(b1-4)GlcNAc
# Method in brief: as §1
# [9] = target: GlcNAc(b1-3)Gal(b1-4)GlcNAc(b1-2)Man(a1-3)[GlcNAc(b1-3)Gal(b1-4)GlcNAc(b1-2)Man(a1-6)]Man(b1-4)GlcNAc(b1-4)[Fuc(a1-6)]GlcNAc
# Method in brief: as §1
# [10] = target: GlcNAc(b1-3)Gal(b1-4)GlcNAc(b1-2)[GlcNAc(b1-3)Gal(b1-4)GlcNAc(b1-6)]Man(a1-6)[GlcNAc(b1-3)Gal(b1-4)GlcNAc(b1-2)Man(a1-3)]Man(b1-4)GlcNAc(b1-4)GlcNAc
# Method in brief: as §1
# [11] = target: GlcNAc(b1-3)Gal(b1-4)GlcNAc(b1-3)Gal(b1-4)GlcNAc
# Method in brief: as §1
# [12] = target: GlcNAc(b1-3)Gal(b1-4)GlcNAc(b1-3)Gal(b1-4)GlcNAc(b1-2)Man(a1-3)[GlcNAc(b1-3)Gal(b1-4)GlcNAc(b1-3)Gal(b1-4)GlcNAc(b1-2)Man(a1-6)]Man(b1-4)GlcNAc(b1-4)GlcNAc
# Method in brief: as §1
# [13] = target: GlcNAc(b1-3)Gal(b1-4)GlcNAc(b1-3)Gal(b1-4)GlcNAc(b1-2)Man(a1-3)[GlcNAc(b1-3)Gal(b1-4)GlcNAc(b1-3)Gal(b1-4)GlcNAc(b1-2)Man(a1-6)]Man(b1-4)GlcNAc(b1-4)[Fuc(a1-6)]GlcNAc
# Method in brief: as §1
# [14] = target: GlcNAc(b1-3)Gal(b1-4)GlcNAc(b1-3)Gal(b1-4)GlcNAc(b1-2)[GlcNAc(b1-3)Gal(b1-4)GlcNAc(b1-3)Gal(b1-4)GlcNAc(b1-6)]Man(a1-6)[GlcNAc(b1-3)Gal(b1-4)GlcNAc(b1-3)Gal(b1-4)GlcNAc(b1-2)Man(a1-3)]Man(b1-4)GlcNAc(b1-4)[Fuc(a1-6)]GlcNAc
# Method in brief: as §1
# [15] = target: GlcNAc(b1-3)Gal(b1-4)GlcNAc(b1-3)Gal(b1-4)GlcNAc(b1-3)Gal(b1-4)GlcNAc(b1-2)Man(a1-3)[GlcNAc(b1-3)Gal(b1-4)GlcNAc(b1-3)Gal(b1-4)GlcNAc(b1-3)Gal(b1-4)GlcNAc(b1-2)Man(a1-6)]Man(b1-4)GlcNAc(b1-4)GlcNAc
# Method in brief: as §1
# [16] = target: GlcNAc(b1-3)Gal(b1-4)GlcNAc(b1-3)Gal(b1-4)GlcNAc(b1-3)Gal(b1-4)GlcNAc(b1-2)Man(a1-3)[GlcNAc(b1-3)Gal(b1-4)GlcNAc(b1-3)Gal(b1-4)GlcNAc(b1-3)Gal(b1-4)GlcNAc(b1-2)Man(a1-6)]Man(b1-4)GlcNAc(b1-4)[Fuc(a1-6)]GlcNAc
# Method in brief: as §1
# [17] = target: GlcNAc(b1-3)Gal(b1-4)GlcNAc(b1-3)Gal(b1-4)GlcNAc(b1-3)Gal(b1-4)GlcNAc(b1-2)[GlcNAc(b1-3)Gal(b1-4)GlcNAc(b1-3)Gal(b1-4)GlcNAc(b1-3)Gal(b1-4)GlcNAc(b1-6)]Man(a1-6)[GlcNAc(b1-3)Gal(b1-4)GlcNAc(b1-3)Gal(b1-4)GlcNAc(b1-3)Gal(b1-4)GlcNAc(b1-2)Man(a1-3)]Man(b1-4)GlcNAc(b1-4)[Fuc(a1-6)]GlcNAc
# Method in brief: as §1
# [18] = target: GlcNAc(b1-3)Gal(b1-4)GlcNAc(b1-3)Gal(b1-4)GlcNAc(b1-3)Gal(b1-4)GlcNAc(b1-3)Gal(b1-4)GlcNAc(b1-2)Man(a1-3)[GlcNAc(b1-3)Gal(b1-4)GlcNAc(b1-3)Gal(b1-4)GlcNAc(b1-3)Gal(b1-4)GlcNAc(b1-3)Gal(b1-4)GlcNAc(b1-2)Man(a1-6)]Man(b1-4)GlcNAc(b1-4)GlcNAc
# Method in brief: as §1
# [19] = target: GlcNAc(b1-3)Gal(b1-4)GlcNAc(b1-3)Gal(b1-4)GlcNAc(b1-3)Gal(b1-4)GlcNAc(b1-3)Gal(b1-4)GlcNAc(b1-2)Man(a1-3)[GlcNAc(b1-3)Gal(b1-4)GlcNAc(b1-3)Gal(b1-4)GlcNAc(b1-3)Gal(b1-4)GlcNAc(b1-3)Gal(b1-4)GlcNAc(b1-2)Man(a1-6)]Man(b1-4)GlcNAc(b1-4)[Fuc(a1-6)]GlcNAc
# Method in brief: as §1
# [20] = target: GlcNAc(b1-3)Gal(b1-4)GlcNAc(b1-3)Gal(b1-4)GlcNAc(b1-3)Gal(b1-4)GlcNAc(b1-3)Gal(b1-4)GlcNAc(b1-2)[GlcNAc(b1-3)Gal(b1-4)GlcNAc(b1-3)Gal(b1-4)GlcNAc(b1-3)Gal(b1-4)GlcNAc(b1-3)Gal(b1-4)GlcNAc(b1-6)]Man(a1-6)[GlcNAc(b1-3)Gal(b1-4)GlcNAc(b1-3)Gal(b1-4)GlcNAc(b1-3)Gal(b1-4)GlcNAc(b1-3)Gal(b1-4)GlcNAc(b1-2)Man(a1-3)]Man(b1-4)GlcNAc(b1-4)[Fuc(a1-6)]GlcNAc
# Method in brief: as §1
# [21] = target: GlcNAc(b1-3)Gal(b1-4)GlcNAc(b1-3)Gal(b1-4)GlcNAc(b1-3)GalNAc
# Method in brief: as §1
# [22] = target: GlcNAc(b1-3)Gal(b1-4)GlcNAc(b1-3)GalNAc
# Method in brief: as §1
# [23] = target: GlcNAc(b1-3)Gal(b1-4)GlcNAc(b1-3)[GlcNAc(b1-3)Gal(b1-4)GlcNAc(b1-3)]GalNAc
# Method in brief: as §1
# [24] = target: GlcNAc(b1-3)Gal(b1-4)GlcNAc(b1-6)[Gal(b1-3)]GalNAc
# Method in brief: as §1
# [25] = target: GlcNAc(b1-3)Gal(b1-4)GlcNAc(b1-6)[GlcNAc(b1-3)Gal(b1-3)]GalNAc
# Method in brief: as §1
# [26] = target: GlcNAc(b1-3)Gal(b1-4)GlcNAc(b1-6)[GlcNAc(b1-3)]Gal(b1-4)GlcNAc
# Method in brief: as §1
# GlcNAc(b1-3)GalNAc = target: GlcNAc(b1-3)GalNAc
# Method in brief: as §1
# GlcNAc(b1-3)Man = target: GlcNAc(b1-3)Man
# Method in brief: as §1
# [27] = target: GlcNAc(b1-3)[GlcNAc(b1-4)][GlcNAc(b1-6)]GlcNAc
# Method in brief: as §1
# [28] = target: GlcNAc(b1-3)[GlcNAc(b1-6)]Gal(b1-4)GlcNAc
# Method in brief: as §1
# [29] = target: GlcNAc(b1-3)[GlcNAc(b1-6)]GalNAc
# Method in brief: as §1
# [30] = target: GlcNAc(b1-4)Gal(b1-4)GlcNAc
# Method in brief: as §1
# GlcNAc(b1-4)GlcNAc = target: GlcNAc(b1-4)GlcNAc
# Method in brief: as §1
# [31] = target: GlcNAc(b1-4)GlcNAc(b1-4)GlcNAc
# Method in brief: as §1
# [32] = target: GlcNAc(b1-4)GlcNAc(b1-4)GlcNAc(b1-4)GlcNAc(b1-4)GlcNAc
# Method in brief: as §1
binder,measurement,setting,value
B1,glycan array binding signal (z-score),[1],-0.781
same,glycan array binding signal (z-score),[2],-0.398
same,glycan array binding signal (z-score),[3],-0.388
same,glycan array binding signal (z-score),[4],-0.354
same,glycan array binding signal (z-score),[5],-0.654
same,glycan array binding signal (z-score),GlcNAc(b1-3)Fuc,-0.584
same,glycan array binding signal (z-score),GlcNAc(b1-3)Gal,-0.715
same,glycan array binding signal (z-score),[6],0.718
same,glycan array binding signal (z-score),GlcNAc(b1-3)Gal(b1-4)Glc,-0.311
same,glycan array binding signal (z-score),[7],-0.211
same,glycan array binding signal (z-score),[8],-0.593
same,glycan array binding signal (z-score),[9],0.128
same,glycan array binding signal (z-score),[10],-0.217
same,glycan array binding signal (z-score),[11],-0.236
same,glycan array binding signal (z-score),[12],0.437
same,glycan array binding signal (z-score),[13],1.07
same,glycan array binding signal (z-score),[14],-0.212
same,glycan array binding signal (z-score),[15],0.321
same,glycan array binding signal (z-score),[16],0.48
same,glycan array binding signal (z-score),[17],0.157
same,glycan array binding signal (z-score),[18],-0.06
same,glycan array binding signal (z-score),[19],1.87
same,glycan array binding signal (z-score),[20],0.569
same,glycan array binding signal (z-score),[21],2.33
same,glycan array binding signal (z-score),[22],0.232
same,glycan array binding signal (z-score),[23],0.464
same,glycan array binding signal (z-score),[24],1.54
same,glycan array binding signal (z-score),[25],-0.372
same,glycan array binding signal (z-score),[26],1.32
same,glycan array binding signal (z-score),GlcNAc(b1-3)GalNAc,-0.267
same,glycan array binding signal (z-score),GlcNAc(b1-3)Man,-0.844
same,glycan array binding signal (z-score),[27],1.35
same,glycan array binding signal (z-score),[28],0.138
same,glycan array binding signal (z-score),[29],-0.637
same,glycan array binding signal (z-score),[30],-0.479
same,glycan array binding signal (z-score),GlcNAc(b1-4)GlcNAc,-0.621
same,glycan array binding signal (z-score),[31],0.123
same,glycan array binding signal (z-score),[32],-0.792

# 2 records drawn at random from the list so far:
binder,measurement,setting,value
B1,glycan array binding signal (z-score),[4],-0.354
same,glycan array binding signal (z-score),[9],0.128
